Primary screen of a compound library

By UniProt entry, the sequences of proteins in these tests, tags left out. Residues count along the entry.
UniProt P9WPC5, whole entry: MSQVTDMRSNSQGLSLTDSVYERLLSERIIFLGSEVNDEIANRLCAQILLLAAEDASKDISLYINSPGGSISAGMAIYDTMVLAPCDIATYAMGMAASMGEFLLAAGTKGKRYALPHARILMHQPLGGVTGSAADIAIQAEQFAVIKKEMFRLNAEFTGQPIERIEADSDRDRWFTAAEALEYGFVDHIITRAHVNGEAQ
UniProt P9WPC3, whole entry partner: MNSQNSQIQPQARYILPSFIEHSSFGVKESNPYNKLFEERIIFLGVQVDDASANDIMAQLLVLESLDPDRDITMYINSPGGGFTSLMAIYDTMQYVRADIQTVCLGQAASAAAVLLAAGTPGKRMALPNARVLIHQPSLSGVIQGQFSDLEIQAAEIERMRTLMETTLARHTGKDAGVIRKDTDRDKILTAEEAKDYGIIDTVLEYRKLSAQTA
UniProt Q8IDJ8, 1-583: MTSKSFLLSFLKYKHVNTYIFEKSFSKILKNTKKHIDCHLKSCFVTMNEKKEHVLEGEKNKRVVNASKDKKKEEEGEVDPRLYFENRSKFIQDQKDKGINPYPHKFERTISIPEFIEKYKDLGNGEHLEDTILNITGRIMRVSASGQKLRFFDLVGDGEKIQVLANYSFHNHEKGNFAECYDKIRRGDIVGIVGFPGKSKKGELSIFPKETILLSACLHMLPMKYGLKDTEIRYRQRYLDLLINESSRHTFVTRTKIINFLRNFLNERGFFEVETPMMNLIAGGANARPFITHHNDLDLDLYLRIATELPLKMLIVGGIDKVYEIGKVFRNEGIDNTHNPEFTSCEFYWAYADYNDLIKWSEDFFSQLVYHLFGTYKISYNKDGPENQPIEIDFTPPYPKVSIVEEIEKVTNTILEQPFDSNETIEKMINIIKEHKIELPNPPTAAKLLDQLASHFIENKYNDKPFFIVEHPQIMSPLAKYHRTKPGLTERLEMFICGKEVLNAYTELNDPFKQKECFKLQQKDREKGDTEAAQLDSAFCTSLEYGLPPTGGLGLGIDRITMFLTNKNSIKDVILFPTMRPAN
UniProt P9WFT3, whole entry: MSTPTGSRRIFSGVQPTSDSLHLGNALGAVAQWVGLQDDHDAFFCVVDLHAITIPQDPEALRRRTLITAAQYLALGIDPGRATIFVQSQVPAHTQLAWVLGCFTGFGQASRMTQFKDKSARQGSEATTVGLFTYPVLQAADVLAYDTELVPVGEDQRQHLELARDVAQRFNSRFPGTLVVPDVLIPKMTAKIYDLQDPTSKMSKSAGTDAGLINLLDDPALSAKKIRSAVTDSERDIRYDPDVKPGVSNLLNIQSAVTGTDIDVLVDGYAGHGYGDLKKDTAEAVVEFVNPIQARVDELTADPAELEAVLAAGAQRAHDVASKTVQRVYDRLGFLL
UniProt A4I591, 1-473: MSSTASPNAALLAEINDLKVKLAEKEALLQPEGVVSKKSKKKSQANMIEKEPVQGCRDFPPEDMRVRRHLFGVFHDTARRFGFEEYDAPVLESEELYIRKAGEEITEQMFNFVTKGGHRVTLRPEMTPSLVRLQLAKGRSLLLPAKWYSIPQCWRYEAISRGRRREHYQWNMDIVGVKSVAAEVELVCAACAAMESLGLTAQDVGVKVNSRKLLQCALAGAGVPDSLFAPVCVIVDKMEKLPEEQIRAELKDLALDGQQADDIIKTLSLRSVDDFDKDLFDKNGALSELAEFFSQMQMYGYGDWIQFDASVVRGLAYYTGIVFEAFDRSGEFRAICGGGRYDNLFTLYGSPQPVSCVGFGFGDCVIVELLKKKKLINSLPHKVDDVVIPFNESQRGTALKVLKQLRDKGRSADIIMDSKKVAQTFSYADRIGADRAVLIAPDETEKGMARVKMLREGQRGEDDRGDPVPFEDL
UniProt Q4DA54, 1-478: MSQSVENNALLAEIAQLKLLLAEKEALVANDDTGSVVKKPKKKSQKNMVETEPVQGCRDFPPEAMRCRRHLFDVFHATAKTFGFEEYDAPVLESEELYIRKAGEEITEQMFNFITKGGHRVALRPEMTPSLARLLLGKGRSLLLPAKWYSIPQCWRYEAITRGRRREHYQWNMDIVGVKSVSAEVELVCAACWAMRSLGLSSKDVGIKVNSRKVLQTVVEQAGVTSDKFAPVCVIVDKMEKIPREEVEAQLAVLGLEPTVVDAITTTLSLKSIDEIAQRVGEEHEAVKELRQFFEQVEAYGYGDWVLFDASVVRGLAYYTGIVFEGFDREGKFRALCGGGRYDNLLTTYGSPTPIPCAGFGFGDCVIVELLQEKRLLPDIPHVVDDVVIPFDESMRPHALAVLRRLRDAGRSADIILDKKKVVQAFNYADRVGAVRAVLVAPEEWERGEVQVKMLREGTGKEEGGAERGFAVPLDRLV

Source: ChEMBL document CHEMBL3988442, “University of Dundee, Small-Polar-MMV Screening Library” (2021).

ClpP1P2: 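ClpP1P2, Mycobacterium tuberculosis (UniProt P9WPC5 and UniProt P9WPC3). Protease assay of ClpP1P2, read by the AMC dye that it sets free. Compounds at 50 µM. Direction is inferred from only a few compounds that gave an IC50; most scored high, so higher reads as stronger inhibition. Most other retested compounds had strongly negative values. Of about 69,000 compounds tested this way, about 10 (0.015%) reached 50% or more in at least one test.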
PfKRS1: 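Lysine-tRNA ligase, Plasmodium falciparum 3D7 (UniProt Q8IDJ8). Enzyme assay of the cytosolic lysyl-tRNA synthetase in 384-well plates, read by luminescence. Compounds at 30 µM. Higher reads as stronger inhibition, judged from the few compounds that gave an IC50. Of about 69,000 compounds tested this way, about 49 (0.071%) reached 50% or more in at least one test.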
MtTrpRS: 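Tryptophan-tRNA ligase, Mycobacterium tuberculosis (UniProt P9WFT3). Enzyme assay of tryptophanyl-tRNA synthetase; the read-out is not stated. Concentration: 10 µM. Direction is not recorded; retested compounds ran higher, which suggests that high means inhibition. Size under these conditions: about 65,000 compounds, about 64 of them at 50% or above in at least one test.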
LiHisRS: 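Enzyme assay of histidyl-tRNA synthetase; the read-out is not stated. Target: Histidine-tRNA ligase, Leishmania infantum (UniProt A4I591). Concentration: 30 µM. The record gives no direction; compounds that gave an IC50 in retests scored well above the rest, so higher reads as stronger inhibition. The assay is labelled LdHisRS but filed under L. infantum. Size under these conditions: about 69,000 compounds, about 410 of them at 50% or above in at least one test.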
TcHisRS: 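Histidine-tRNA ligase, Trypanosoma cruzi CL Brener (UniProt Q4DA54). Enzyme assay of histidyl-tRNA synthetase; the read-out is not stated. Tested at 30 µM. The record gives no direction; compounds that gave an IC50 in retests scored well above the rest, so higher reads as stronger inhibition. Size under these conditions: about 69,000 compounds, about 31 of them at 50% or above in at least one test.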
Leishmania in macrophages: 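Cell assay of Leishmania donovani living inside macrophages; the read-out is not stated. Compounds at 30 µM. Higher reads as stronger inhibition (inferred: compounds with an IC50 in retests scored well above the rest). Of about 69,000 compounds tested this way, about 1,000 (1.5%) reached 50% or more in at least one test.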

Each number is a percent effect as filed.
The controls that fix the scale are not given in the record; negative values are as filed.
This is an unselected part of the compounds tested.
Two or more numbers in one place are separate tests of the same structure; such repeats can differ widely.
A dash means the value is not listed here; it may have been measured.

| compound | ClpP1P2 | PfKRS1 | MtTrpRS | LiHisRS | TcHisRS | Leishmania in macrophages |
|---|---|---|---|---|---|---|
| `Cc1ccccc1CNC(=O)CNc1ccc(OC2CCOC2)cc1` (centres unmarked) | -11.59% | -0.943% | -1.377% | 18.07% | 11.44% | 40.57% |
| `Cc1ccc(OCC(=O)N2C[C@@H]3CN(C)CCO[C@@H]3C2)cc1` | -3.589% | 2.68% | 0.5394% | 5.172% | 3.797% | - |
| `O=C(NCC1CC1)C1CN(C(=O)c2ccco2)CC12CCOCC2` (centres unmarked) | -3.046% | -1.88% | 3.267% | 15.04% | 2.151% | 26.42% and 15.67% |
| `O=C(NCC(=O)N1CCCC1Cc1cccc(F)c1)c1ccccn1` (centres unmarked) | -1.442% | 2.927% | -0.7597% | 15.32% | 16.67% | 13.95% |
| `CC1(C)CNC(=O)c2nc(CCN3CCOCC3)[nH]c2C1` | -25.98% | 6.286% | 4.063% | 16% | 0% | 23.69% |
| `CNCCN1C(=O)CC[C@H]2CN(c3ncc(F)cn3)CC[C@H]21` | -6.219% | 8.043% | 2.755% | 12.9% | 9.74% | - |
| `O=C(O)C(F)(F)F.[H][C@@]12OCCN(C(=O)COC)[C@@]1([H])CC[C@H]2OCc1cccnc1` | - | - | - | - | - | -13.52% |
| `O=C(c1ccoc1)N1CCO[C@]2(CCC[C@H]2COCc2cccnc2)C1` | -9.013% | 9.732% | 6.184% | 25.71% | 9.804% | - |
| `CCc1ncc2c(n1)CN(CC(=O)N1CCc3sccc3C1)CC2` | -14.21% | 4.443% | 4.307% | 29.03% | 18.56% | 19.26% |
| `Cc1cccc(-c2ccc(C(=O)NCCN3CCOCC3)c(=O)[nH]2)c1` | -9.427% | 3.495% | -3.385% | 8% | 1.63% | -0.6596% |
| `Cc1ccc(CN2CCc3ncc(CNS(C)(=O)=O)n3CC2)o1` | 3.296% | 9.204% | 0.4112% | 15.24% | 6.612% | - |
| `CCOCc1ccc(CNC2=NCCCN2)cc1.I` | - | - | - | - | - | 7.93% |
| `O=C(O)C(F)(F)F.[H][C@@]12C[C@H](C(=O)N3CCCCO3)CN(C(=O)c3ccccn3)[C@]1([H])CCO2` | - | - | - | - | - | 21.13% |
| `O=C(NCCCn1cccn1)c1nc2ccccc2[nH]1` | 8.757% | 7.295% | -7.977% | 11.71% | 13.33% | 17.47% |
| `O=C(NCc1cn2c(n1)SCC2)c1ccc(CN2CCCCC2)cc1` | -4.249% | 6.134% | 2.429% | 13.27% | 0.8% | 23.73% |
| `c1ccc(-c2cc(CC3(NCc4ncc[nH]4)COC3)no2)cc1` | -4.871% | 2.799% | -1.897% | 22.97% | 2.174% | 16.38% |
| `C[C@@H]1C[C@@H]2CCN(Cc3ccncc3)C[C@H]2O1` | 12.08% | 1.865% | -1.299% | 17.43% | 10.92% | - |
| `CC(C)c1ocnc1C(=O)N1CCCC(c2ccn[nH]2)C1` (centres unmarked) | -6.375% | 1.903% | 0.149% | 8.219% | 3.279% | 13.27% |
| `Cc1nc2sccn2c1C(=O)N1CCn2nc(C(=O)NC3CC3)cc2C1` | -5.669% | 1.247% | 3.964% | 15.87% | -0.5128% | 10.62% |
| `CC(CNC(=O)c1cccnc1)Oc1ccc(F)cc1` (centres unmarked) | 6.697% | 3.667% | -4.301% | 12.39% | 2.632% | -12.69% |
| `COCCS(=O)(=O)NC(C)c1cccc(C)c1C` (centres unmarked) | -11.03% | 0.2346% | -1.511% | 15.04% | -1.327% | 24.87% |
| `CC(SCCC(=O)NC(N)=O)c1ccccc1F` (centres unmarked) | 2.096% | 3.874% | -3.3% | 14.29% | 1.961% | 26.22% |
| `O=C(COc1cccc(F)c1)N1C[C@@H](O)[C@H](N2CCCC2)C1` | -2.93% | 3.628% | 3.763% | 8.333% | -0.5405% | 23.14% |
| `Cc1cc(CN(Cc2ccccc2)CC(O)c2cccs2)on1` (centres unmarked) | -15.88% | -0.1028% | 2.124% | -3.03% | 4.233% | -0.3072% |
| `CCN(CC)c1ncc(Cl)c(C(=O)NC2CCc3nccn3C2)n1` (centres unmarked) | 2.382% | 2.366% | -1.342% | 12.82% | 0% | 8.064% |
| `CN(C)S(=O)(=O)N(Cc1cscn1)c1ccccc1` | -4.29% | 0.5888% | 15.74% | 22.39% | 0% | 22.41% |
| `CC(C)C1CN(c2cccc(C#N)n2)CCCN1CC1CC1` (centres unmarked) | -199.9% | 10.25% | 1.207% | 14.29% | 7.179% | 12.52% |
| `Fc1cccc(N2CCCC3(CN(Cc4cccnc4)CCO3)C2)c1.O=C(O)C(F)(F)F.O=C(O)C(F)(F)F.O=C(O)C(F)(F)F` (centres unmarked) | - | - | - | - | - | 5.464% |

Once more, the final 2:

compound,ClpP1P2,PfKRS1,MtTrpRS,LiHisRS,TcHisRS,Leishmania in macrophages
CC(C)C1CN(c2cccc(C#N)n2)CCCN1CC1CC1 (centres unmarked),-199.9%,10.25%,1.207%,14.29%,7.179%,12.52%
Fc1cccc(N2CCCC3(CN(Cc4cccnc4)CCO3)C2)c1.O=C(O)C(F)(F)F.O=C(O)C(F)(F)F.O=C(O)C(F)(F)F (centres unmarked),-,-,-,-,-,5.464%